# According to publication PMC8894352:
# Amino acid sequences for entries named in this document (tags omitted). Residues count along the entry.
# UniProt Q91ZX7, residues 20-4545: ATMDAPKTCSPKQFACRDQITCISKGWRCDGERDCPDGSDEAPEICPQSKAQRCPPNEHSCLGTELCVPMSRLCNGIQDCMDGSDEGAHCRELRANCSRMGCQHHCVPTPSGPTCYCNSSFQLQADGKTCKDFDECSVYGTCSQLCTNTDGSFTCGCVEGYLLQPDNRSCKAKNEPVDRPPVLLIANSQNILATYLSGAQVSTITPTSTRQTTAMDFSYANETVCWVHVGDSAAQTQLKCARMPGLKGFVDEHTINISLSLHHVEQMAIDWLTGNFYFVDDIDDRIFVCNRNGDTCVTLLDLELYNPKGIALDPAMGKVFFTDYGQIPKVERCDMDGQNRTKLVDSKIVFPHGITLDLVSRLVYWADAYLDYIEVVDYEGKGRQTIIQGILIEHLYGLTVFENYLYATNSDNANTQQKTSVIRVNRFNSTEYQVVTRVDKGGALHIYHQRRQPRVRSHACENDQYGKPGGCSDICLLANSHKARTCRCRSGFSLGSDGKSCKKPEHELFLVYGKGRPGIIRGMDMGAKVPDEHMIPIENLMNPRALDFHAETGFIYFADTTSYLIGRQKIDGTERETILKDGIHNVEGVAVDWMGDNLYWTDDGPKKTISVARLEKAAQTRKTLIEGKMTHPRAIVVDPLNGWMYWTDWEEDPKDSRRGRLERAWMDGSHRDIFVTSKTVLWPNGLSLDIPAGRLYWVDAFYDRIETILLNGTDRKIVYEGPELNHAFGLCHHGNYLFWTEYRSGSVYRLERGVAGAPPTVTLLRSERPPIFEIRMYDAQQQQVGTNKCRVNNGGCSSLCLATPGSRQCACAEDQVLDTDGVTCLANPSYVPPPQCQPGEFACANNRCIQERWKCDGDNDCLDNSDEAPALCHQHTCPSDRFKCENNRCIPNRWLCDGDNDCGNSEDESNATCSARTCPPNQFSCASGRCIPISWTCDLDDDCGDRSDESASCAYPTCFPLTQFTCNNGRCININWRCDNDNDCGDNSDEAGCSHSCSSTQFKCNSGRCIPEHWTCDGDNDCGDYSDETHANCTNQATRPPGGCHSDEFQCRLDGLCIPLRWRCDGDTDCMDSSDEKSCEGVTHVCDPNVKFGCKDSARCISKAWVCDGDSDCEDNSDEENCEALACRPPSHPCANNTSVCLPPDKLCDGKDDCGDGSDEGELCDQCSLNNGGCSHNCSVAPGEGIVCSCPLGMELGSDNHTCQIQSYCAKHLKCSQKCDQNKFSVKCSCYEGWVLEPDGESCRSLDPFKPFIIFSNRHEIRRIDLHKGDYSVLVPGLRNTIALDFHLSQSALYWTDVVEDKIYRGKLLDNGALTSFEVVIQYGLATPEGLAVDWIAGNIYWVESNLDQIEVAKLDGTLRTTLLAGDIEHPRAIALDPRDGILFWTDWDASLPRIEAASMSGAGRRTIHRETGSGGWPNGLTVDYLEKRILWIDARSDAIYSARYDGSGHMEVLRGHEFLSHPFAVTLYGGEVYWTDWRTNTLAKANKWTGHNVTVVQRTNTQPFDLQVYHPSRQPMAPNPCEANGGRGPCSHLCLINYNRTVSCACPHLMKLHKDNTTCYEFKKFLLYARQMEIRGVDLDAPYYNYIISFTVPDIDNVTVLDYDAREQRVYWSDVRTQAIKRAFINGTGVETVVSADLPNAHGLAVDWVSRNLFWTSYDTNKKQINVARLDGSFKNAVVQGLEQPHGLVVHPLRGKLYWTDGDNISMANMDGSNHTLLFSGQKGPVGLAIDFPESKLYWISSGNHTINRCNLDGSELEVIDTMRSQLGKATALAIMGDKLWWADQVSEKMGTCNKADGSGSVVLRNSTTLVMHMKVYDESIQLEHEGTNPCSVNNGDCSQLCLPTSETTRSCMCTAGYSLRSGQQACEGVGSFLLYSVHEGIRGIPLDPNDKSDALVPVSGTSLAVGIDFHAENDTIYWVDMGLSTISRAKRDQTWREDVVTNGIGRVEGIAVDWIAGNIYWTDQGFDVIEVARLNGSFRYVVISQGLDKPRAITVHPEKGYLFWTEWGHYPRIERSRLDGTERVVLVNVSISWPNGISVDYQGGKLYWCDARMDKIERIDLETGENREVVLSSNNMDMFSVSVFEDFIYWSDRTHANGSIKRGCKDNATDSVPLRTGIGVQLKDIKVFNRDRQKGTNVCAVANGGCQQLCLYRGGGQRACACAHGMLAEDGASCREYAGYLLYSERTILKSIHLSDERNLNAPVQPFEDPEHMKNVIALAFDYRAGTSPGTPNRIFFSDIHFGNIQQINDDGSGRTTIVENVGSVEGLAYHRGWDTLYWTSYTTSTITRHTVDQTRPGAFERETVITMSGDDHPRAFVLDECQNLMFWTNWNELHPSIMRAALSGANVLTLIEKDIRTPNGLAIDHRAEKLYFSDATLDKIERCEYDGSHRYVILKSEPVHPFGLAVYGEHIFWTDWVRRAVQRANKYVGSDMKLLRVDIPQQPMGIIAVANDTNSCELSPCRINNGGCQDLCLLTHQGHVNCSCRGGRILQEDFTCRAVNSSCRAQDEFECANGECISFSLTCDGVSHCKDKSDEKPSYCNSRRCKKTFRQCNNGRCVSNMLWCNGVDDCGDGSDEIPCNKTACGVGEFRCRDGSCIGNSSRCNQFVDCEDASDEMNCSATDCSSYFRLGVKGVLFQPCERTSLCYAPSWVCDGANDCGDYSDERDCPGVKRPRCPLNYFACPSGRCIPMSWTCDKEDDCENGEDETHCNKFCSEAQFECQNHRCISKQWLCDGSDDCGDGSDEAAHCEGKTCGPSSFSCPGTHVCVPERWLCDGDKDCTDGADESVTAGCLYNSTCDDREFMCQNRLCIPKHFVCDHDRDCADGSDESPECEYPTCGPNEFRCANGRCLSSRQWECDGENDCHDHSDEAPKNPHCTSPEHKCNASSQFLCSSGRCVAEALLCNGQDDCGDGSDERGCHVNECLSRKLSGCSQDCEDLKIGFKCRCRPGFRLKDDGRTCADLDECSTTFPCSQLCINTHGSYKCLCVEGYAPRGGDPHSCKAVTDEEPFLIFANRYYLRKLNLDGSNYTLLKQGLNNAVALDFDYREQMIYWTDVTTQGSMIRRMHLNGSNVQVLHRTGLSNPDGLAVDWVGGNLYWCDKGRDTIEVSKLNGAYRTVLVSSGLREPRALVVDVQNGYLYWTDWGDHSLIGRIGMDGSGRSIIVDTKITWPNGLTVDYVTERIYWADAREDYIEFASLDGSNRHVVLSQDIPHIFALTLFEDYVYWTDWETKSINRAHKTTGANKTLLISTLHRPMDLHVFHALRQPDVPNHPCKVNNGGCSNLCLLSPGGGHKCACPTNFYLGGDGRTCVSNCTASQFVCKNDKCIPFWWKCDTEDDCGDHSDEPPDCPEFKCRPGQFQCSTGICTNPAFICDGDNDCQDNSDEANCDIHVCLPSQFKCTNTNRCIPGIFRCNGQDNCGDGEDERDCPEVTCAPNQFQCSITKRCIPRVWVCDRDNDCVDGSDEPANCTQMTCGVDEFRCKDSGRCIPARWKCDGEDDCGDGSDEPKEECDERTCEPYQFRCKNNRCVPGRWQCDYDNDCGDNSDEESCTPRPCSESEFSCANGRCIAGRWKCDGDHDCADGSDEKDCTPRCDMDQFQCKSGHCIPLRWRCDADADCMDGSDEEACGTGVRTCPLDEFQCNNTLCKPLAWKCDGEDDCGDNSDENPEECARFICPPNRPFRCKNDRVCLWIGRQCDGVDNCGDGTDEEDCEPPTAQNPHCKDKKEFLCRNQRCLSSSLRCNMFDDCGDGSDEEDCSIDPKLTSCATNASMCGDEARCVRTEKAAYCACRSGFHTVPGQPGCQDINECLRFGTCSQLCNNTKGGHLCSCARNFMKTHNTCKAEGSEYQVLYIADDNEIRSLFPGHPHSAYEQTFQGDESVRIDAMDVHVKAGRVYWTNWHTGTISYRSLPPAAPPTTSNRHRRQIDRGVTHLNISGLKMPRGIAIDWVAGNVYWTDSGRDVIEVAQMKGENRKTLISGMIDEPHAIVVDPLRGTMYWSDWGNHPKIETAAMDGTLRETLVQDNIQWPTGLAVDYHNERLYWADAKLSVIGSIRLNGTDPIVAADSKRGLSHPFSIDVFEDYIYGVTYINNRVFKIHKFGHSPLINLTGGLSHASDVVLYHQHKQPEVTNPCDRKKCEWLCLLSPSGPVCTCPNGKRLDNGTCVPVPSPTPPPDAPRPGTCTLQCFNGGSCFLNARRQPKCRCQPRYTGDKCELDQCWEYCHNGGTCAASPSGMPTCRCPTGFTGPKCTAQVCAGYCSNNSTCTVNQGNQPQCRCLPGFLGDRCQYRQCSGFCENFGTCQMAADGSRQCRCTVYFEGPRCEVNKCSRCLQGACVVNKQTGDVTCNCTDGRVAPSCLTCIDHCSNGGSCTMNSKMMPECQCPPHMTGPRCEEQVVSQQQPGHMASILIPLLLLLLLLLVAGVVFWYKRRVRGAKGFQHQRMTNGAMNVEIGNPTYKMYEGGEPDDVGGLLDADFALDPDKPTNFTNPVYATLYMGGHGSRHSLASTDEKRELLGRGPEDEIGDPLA
# These are yes or no findings as the source states them, for the method shown. In cells and extracts the contact can be indirect. Some binding calls cover weakened binding; strength is not graded here.
# T1: lipocalin-2 (LCN2) (mouse (endogenous in C57BL/6 corpus callosum and primary astrocytes)) (UniProt P11672)
# T1 sequence: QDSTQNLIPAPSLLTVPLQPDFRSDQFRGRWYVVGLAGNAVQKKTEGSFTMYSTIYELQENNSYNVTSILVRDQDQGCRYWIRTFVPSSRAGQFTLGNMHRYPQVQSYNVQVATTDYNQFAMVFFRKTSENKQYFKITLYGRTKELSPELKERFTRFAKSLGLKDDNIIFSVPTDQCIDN
# How the values were obtained:
# [1] = biological target: T1, lipocalin-2 (LCN2) (mouse (endogenous in C57BL/6 corpus callosum and primary astrocytes)); assay: co-IP; RIPA lysates of the ipsilateral corpus callosum of sham and dMCAO mice; 1 ug anti-LCN2 or anti-LRP1 antibody or control IgG overnight at 4 °C, protein A/G agarose 2 h at 4 °C; immunoblot with anti-LCN2 and anti-LRP1
# [2] = biological target: T1, lipocalin-2 (LCN2) (mouse (endogenous in C57BL/6 corpus callosum and primary astrocytes)); assay: co-IP; RIPA lysates of primary cultured mouse astrocytes, control or LPS-treated; 1 ug anti-LCN2 or anti-LRP1 antibody or control IgG overnight at 4 °C, protein A/G agarose 2 h at 4 °C; immunoblot with anti-LCN2 and anti-LRP1
# [3] = biological target: low-density lipoprotein receptor-related protein 1 (LRP1) (mouse (endogenous in C57BL/6 corpus callosum and primary astrocytes)) (UniProt Q91ZX7); assay: co-IP; RIPA lysates of the ipsilateral corpus callosum of sham and dMCAO mice; 1 ug anti-LCN2 or anti-LRP1 antibody or control IgG overnight at 4 °C, protein A/G agarose 2 h at 4 °C; immunoblot with anti-LCN2 and anti-LRP1
Molecule,binding [1],binding [2],binding [3]
low-density lipoprotein receptor-related protein 1 (LRP1) (from UniProt Q91ZX7 20-4545),binds,binds,
"lipocalin-2 (LCN2) (protein, UniProt P11672 21-200) QDSTQNLIPAPSLLTVPLQPDFRSDQFRGRWYVVGLAGNAVQKKTEGSFTMYSTIYELQENNSYNVTSILVRDQDQGCRYWIRTFVPSSRAGQFTLGNMHRYPQVQSYNVQVATTDYNQFAMVFFRKTSENKQYFKITLYGRTKELSPELKERFTRFAKSLGLKDDNIIFSVPTDQCIDN",,,binds
